Some of the results follow.
Columns and labels:
Experiment in all cases: glycan array binding signal (z-score within array); higher = stronger binding
Details in all cases: glycan notation: IUPAC condensed, linker removed
[1] = target: Fuc(a1-2)Gal(b1-4)[Fuc(a1-3)]GlcNAc(b1-2)Man(a1-3)[Fuc(a1-2)Gal(b1-4)[Fuc(a1-3)]GlcNAc(b1-2)Man(a1-6)]Man(b1-4)GlcNAc(b1-4)[Fuc(a1-6)]GlcNAc
Method in brief: (§1)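 The binding signal is a Z-score computed within each array and averaged over linkers. Arrays of the same protein sequence at different concentrations or buffers were also averaged together. Data originate from 3228 arrays in the Consortium for Functional Glycomics database, kept only where the protein sequence was available.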

[2] = target: Fuc(a1-2)Gal(b1-4)[Fuc(a1-3)]GlcNAc(b1-2)[Fuc(a1-2)Gal(b1-4)[Fuc(a1-3)]GlcNAc(b1-4)]Man(a1-3)[Fuc(a1-2)Gal(b1-4)[Fuc(a1-3)]GlcNAc(b1-2)Man(a1-6)]Man(b1-4)GlcNAc(b1-4)GlcNAc
Method in brief: as §1

[3] = target: Fuc(a1-2)Gal(b1-4)[Fuc(a1-3)]GlcNAc(b1-3)Gal(b1-4)[Fuc(a1-3)]GlcNAc
Method in brief: as §1

[4] = target: Fuc(a1-2)Gal(b1-4)[Fuc(a1-3)]GlcNAc(b1-3)Gal(b1-4)[Fuc(a1-3)]GlcNAc(b1-3)Gal(b1-4)[Fuc(a1-3)]GlcNAc
Method in brief: as §1

[5] = target: Fuc(a1-2)Gal(b1-4)[Fuc(a1-3)]GlcNAc(b1-3)GalNAc
Method in brief: as §1

[6] = target: Fuc(a1-2)Gal(b1-4)[Fuc(a1-3)]GlcNAc(b1-3)[Neu5Ac(a2-6)Gal(b1-4)GlcNAc(b1-6)]Gal(b1-4)Glc
Method in brief: as §1

[7] = target: Fuc(a1-2)Gal3S(b1-4)GlcNAc
Method in brief: as §1

[8] = target: Fuc(a1-2)Gal6S(b1-3)GlcNAc
Method in brief: as §1

[9] = target: Fuc(a1-2)Gal6S(b1-3)GlcNAc6S
Method in brief: as §1

[10] = target: Fuc(a1-2)Gal6S(b1-4)Glc
Method in brief: as §1

[11] = target: Fuc(a1-2)Gal6S(b1-4)Glc6S
Method in brief: as §1

[12] = target: Fuc(a1-2)[Gal(a1-3)]Gal
Method in brief: as §1

[13] = target: Fuc(a1-2)[Gal(a1-3)]Gal(b1-3)GalNAc
Method in brief: as §1

[14] = target: Fuc(a1-2)[Gal(a1-3)]Gal(b1-3)GalNAc(b1-3)Gal(a1-4)Gal(b1-4)Glc
Method in brief: as §1

[15] = target: Fuc(a1-2)[Gal(a1-3)]Gal(b1-3)GlcNAc
Method in brief: as §1

[16] = target: Fuc(a1-2)[Gal(a1-3)]Gal(b1-3)GlcNAc(b1-2)Man(a1-3)[Fuc(a1-2)[Gal(a1-3)]Gal(b1-3)GlcNAc(b1-2)Man(a1-6)]Man(b1-4)GlcNAc(b1-4)GlcNAc
Method in brief: as §1

[17] = target: Fuc(a1-2)[Gal(a1-3)]Gal(b1-3)GlcNAc(b1-2)Man(a1-3)[Fuc(a1-2)[Gal(a1-3)]Gal(b1-3)GlcNAc(b1-2)Man(a1-6)]Man(b1-4)GlcNAc(b1-4)[Fuc(a1-6)]GlcNAc
Method in brief: as §1

[18] = target: Fuc(a1-2)[Gal(a1-3)]Gal(b1-3)GlcNAc(b1-3)GalNAc
Method in brief: as §1

[19] = target: Fuc(a1-2)[Gal(a1-3)]Gal(b1-3)GlcNAc(b1-6)GalNAc
Method in brief: as §1

[20] = target: Fuc(a1-2)[Gal(a1-3)]Gal(b1-4)Glc
Method in brief: as §1

[21] = target: Fuc(a1-2)[Gal(a1-3)]Gal(b1-4)GlcNAc
Method in brief: as §1

[22] = target: Fuc(a1-2)[Gal(a1-3)]Gal(b1-4)GlcNAc(b1-2)Man
Method in brief: as §1

[23] = target: Fuc(a1-2)[Gal(a1-3)]Gal(b1-4)GlcNAc(b1-2)Man(a1-3)[Fuc(a1-2)[Gal(a1-3)]Gal(b1-4)GlcNAc(b1-2)Man(a1-6)]Man(b1-4)GlcNAc(b1-4)GlcNAc
Method in brief: as §1

[24] = target: Fuc(a1-2)[Gal(a1-3)]Gal(b1-4)GlcNAc(b1-2)Man(a1-3)[Fuc(a1-2)[Gal(a1-3)]Gal(b1-4)GlcNAc(b1-2)Man(a1-6)]Man(b1-4)GlcNAc(b1-4)[Fuc(a1-6)]GlcNAc
Method in brief: as §1

[25] = target: Fuc(a1-2)[Gal(a1-3)]Gal(b1-4)GlcNAc(b1-3)GalNAc
Method in brief: as §1

[26] = target: Fuc(a1-2)[Gal(a1-3)]Gal(b1-4)GlcNAc(b1-3)[Fuc(a1-2)[Gal(a1-3)]Gal(b1-4)GlcNAc(b1-6)]GalNAc
Method in brief: as §1

[27] = target: Fuc(a1-2)[Gal(a1-3)]Gal(b1-4)GlcNAc(b1-6)GalNAc
Method in brief: as §1

[28] = target: Fuc(a1-2)[Gal(a1-3)]Gal(b1-4)[Fuc(a1-3)]Glc
Method in brief: as §1

[29] = target: Fuc(a1-2)[Gal(a1-3)]Gal(b1-4)[Fuc(a1-3)]GlcNAc
Method in brief: as §1

[30] = target: Fuc(a1-2)[Gal(a1-3)]Gal(b1-4)[Fuc(a1-3)]GlcNAc(b1-3)GalNAc
Method in brief: as §1

[31] = target: Fuc(a1-2)[Gal(a1-4)]Gal(b1-4)GlcNAc
Method in brief: as §1

[32] = target: Fuc(a1-2)[GalNAc(a1-3)]Gal
Method in brief: as §1

[33] = target: Fuc(a1-2)[GalNAc(a1-3)]Gal(b1-3)GalNAc(a1-3)[Fuc(a1-2)]Gal(b1-4)GlcNAc
Method in brief: as §1

[34] = target: Fuc(a1-2)[GalNAc(a1-3)]Gal(b1-3)GalNAc(b1-3)Gal(a1-4)Gal(b1-4)Glc
Method in brief: as §1

[35] = target: Fuc(a1-2)[GalNAc(a1-3)]Gal(b1-3)GlcNAc
Method in brief: as §1

[36] = target: Fuc(a1-2)[GalNAc(a1-3)]Gal(b1-3)GlcNAc(b1-2)Man(a1-3)[Fuc(a1-2)[GalNAc(a1-3)]Gal(b1-3)GlcNAc(b1-2)Man(a1-6)]Man(b1-4)GlcNAc(b1-4)GlcNAc
Method in brief: as §1

[37] = target: Fuc(a1-2)[GalNAc(a1-3)]Gal(b1-3)GlcNAc(b1-2)Man(a1-3)[Fuc(a1-2)[GalNAc(a1-3)]Gal(b1-3)GlcNAc(b1-2)Man(a1-6)]Man(b1-4)GlcNAc(b1-4)[Fuc(a1-6)]GlcNAc
Method in brief: as §1

[38] = target: Fuc(a1-2)[GalNAc(a1-3)]Gal(b1-3)GlcNAc(b1-3)GalNAc
Method in brief: as §1

B1: Loc1 (Escherichia coli) (protein)
chain: APCALTNVGEQRGTYILKPLSMKGNLTAEKIENTGNIIECTDLQETTNAIKVHFLTQNALKFKVGSRHYIINFPFEYDGKKIELPGKSSYNLEEMLSAINFTIPYSIASVSDSSNTADIFPGTPFPLLFEIEVSSCTGNNTNCNSVRFNYNLNTILQVNLMTHHHHHH
- glycan array binding signal (z-score) [1]: -0.112
- glycan array binding signal (z-score) [2]: 0.799
- glycan array binding signal (z-score) [3]: -0.064
- glycan array binding signal (z-score) [4]: -0.457
- glycan array binding signal (z-score) [5]: 0.624
- glycan array binding signal (z-score) [6]: -0.511
- glycan array binding signal (z-score) [7]: -0.245
- glycan array binding signal (z-score) [8]: -0.285
- glycan array binding signal (z-score) [9]: -0.314
- glycan array binding signal (z-score) [10]: 0.046
- glycan array binding signal (z-score) [11]: -0.953
- glycan array binding signal (z-score) [12]: -0.14
- glycan array binding signal (z-score) [13]: 0.04
- glycan array binding signal (z-score) [14]: 0.29
- glycan array binding signal (z-score) [15]: -0.111
- glycan array binding signal (z-score) [16]: -0.663
- glycan array binding signal (z-score) [17]: -0.489
- glycan array binding signal (z-score) [18]: -0.405
- glycan array binding signal (z-score) [19]: 1.41
- glycan array binding signal (z-score) [20]: -0.253
- glycan array binding signal (z-score) [21]: 2
- glycan array binding signal (z-score) [22]: -0.561
- glycan array binding signal (z-score) [23]: 1.97
- glycan array binding signal (z-score) [24]: -0.644
- glycan array binding signal (z-score) [25]: -0.146
- glycan array binding signal (z-score) [26]: 1.05
- glycan array binding signal (z-score) [27]: -0.577
- glycan array binding signal (z-score) [28]: 0.22
- glycan array binding signal (z-score) [29]: -0.548
- glycan array binding signal (z-score) [30]: 1.01
- glycan array binding signal (z-score) [31]: 0.397
- glycan array binding signal (z-score) [32]: -0.147
- glycan array binding signal (z-score) [33]: -0.782
- glycan array binding signal (z-score) [34]: -0.019
- glycan array binding signal (z-score) [35]: -0.651
- glycan array binding signal (z-score) [36]: -0.067
- glycan array binding signal (z-score) [37]: 0.796
- glycan array binding signal (z-score) [38]: 0.693
